Measurements as given in PMC5946105.
No constants are given. Whether binding was seen depends on the method and setting. In cells and extracts the contact can be indirect. Some entries that bind do so weakly or less than the wild type.

Protein sequences, listed by entry. Tags and fused reporters are not part of them.
UniProt P12814: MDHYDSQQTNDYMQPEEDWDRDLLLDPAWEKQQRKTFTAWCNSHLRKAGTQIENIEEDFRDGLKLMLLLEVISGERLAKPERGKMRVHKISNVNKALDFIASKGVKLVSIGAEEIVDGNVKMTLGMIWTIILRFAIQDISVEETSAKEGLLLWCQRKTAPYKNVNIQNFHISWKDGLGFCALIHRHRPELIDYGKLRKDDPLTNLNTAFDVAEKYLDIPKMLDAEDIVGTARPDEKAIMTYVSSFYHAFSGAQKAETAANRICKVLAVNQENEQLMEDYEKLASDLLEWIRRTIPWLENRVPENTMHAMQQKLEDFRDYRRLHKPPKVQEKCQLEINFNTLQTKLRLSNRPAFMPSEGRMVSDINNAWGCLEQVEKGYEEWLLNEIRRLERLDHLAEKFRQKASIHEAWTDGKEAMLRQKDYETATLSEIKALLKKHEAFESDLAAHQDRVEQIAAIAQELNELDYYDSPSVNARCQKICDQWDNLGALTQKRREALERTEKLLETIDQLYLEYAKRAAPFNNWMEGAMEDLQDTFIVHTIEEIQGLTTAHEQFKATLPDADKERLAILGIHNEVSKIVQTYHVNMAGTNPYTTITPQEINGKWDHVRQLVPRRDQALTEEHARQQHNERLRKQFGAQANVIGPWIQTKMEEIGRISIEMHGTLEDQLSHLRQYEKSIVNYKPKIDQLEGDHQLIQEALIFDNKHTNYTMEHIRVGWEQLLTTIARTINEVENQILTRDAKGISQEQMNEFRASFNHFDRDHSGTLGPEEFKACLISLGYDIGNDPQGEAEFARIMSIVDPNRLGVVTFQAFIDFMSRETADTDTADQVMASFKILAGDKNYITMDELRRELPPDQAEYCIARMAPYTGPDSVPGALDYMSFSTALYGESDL

Tests used:
[1] = target: α-actinin-1–GST (human) (UniProt P12814); assay: pull-down; 5 µg α-actinin-1–GST coupled to glutathione sepharose beads; lysate of MCF10A flotillin-2 shRNA cells (about 20% of flotillin-1 left), 1.2 mg total protein; Western blot; only the target purified
[2] = target: α-actinin-1–GST (human) (UniProt P12814); assay: pull-down; 5 µg α-actinin-1–GST coupled to glutathione sepharose beads; MCF10A control cell lysate, 1.2 mg total protein; Western blot; only the target purified

binding [1]: binds weakly
binding [2]: binds
B1: flotillin-1 (protein, UniProt O75955 1-427)
chain: MFFTCGPNEAMVVSGFCRSPPVMVAGGRVFVLPCIQQIQRISLNTLTLNVKSEKVYTRHGVPISVTGIAQVKIQGQNKEMLAAACQMFLGKTEAEIAHIALETLEGHQRAIMAHMTVEEIYKDRQKFSEQVFKVASSDLVNMGISVVSYTLKDIHDDQDYLHSLGKARTAQVQKDARIGEAEAKRDAGIREAKAKQEKVSAQYLSEIEMAKAQRDYELKKAAYDIEVNTRRAQADLAYQLQVAKTKQQIEEQRVQVQVVERAQQVAVQEQEIARREKELEARVRKPAEAERYKLERLAEAEKSQLIMQAEAEAASVRMRGEAEAFAIGARARAEAEQMAKKAEAFQLYQEAAQLDMLLEKLPQVAEEISGPLTSANKITLVSSGSGTMGAAKVTGEVLDILTRLPESVERLTGVSISQVNHKPLRTA
